Among all 360,000 compounds or so, about 7,500 (2.1%) were called active. The inconclusive results got no clear call from the source; some entries with a clear call stand among them for comparison. Calls come from the whole dose curve; as a rule, active = well fitted inhibition curve with a large enough effect; inconclusive = small, poorly fitted or top-dose-only effect, or effect the other way; inactive = flat fitted curve, though single readings scatter. Where the call is inconclusive, the potency comes from a doubtful curve fit.
experiment: Nrf2 qHTS screen for inhibitors; conditions: A549 ARE-Fluc reporter, luciferase luminescence, 18-24 h; activity change, negative = inhibition: at 46 µM (top of the series); note: nearly all actives have a fitted effect of over 60% in size
How it was run: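 Reporter: ARE-Fluc in A549. Exposure: 18-24 h, 37 °C, 5% CO2, 5% FBS OPTI-MEM. Readouts: fluorescent cytotoxicity (CellTiter-Fluor), then luminescent Nrf2 signal after BugLite.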
% is set by controls: 0 for no effect and ±100 for the full control effect; potency is the fitted concentration of half-maximal effect.

| Structure (SMILES) | Potency | activity change, negative = inhibition |
| --- | --- | --- |
| O=C1CCC(C(=O)Nc2cccc(S(=O)(=O)Nc3ccccc3F)c2)=NN1 | active: 25.9 µM | – |
| COc1cc(NS(=O)(=O)c2ccc3c(c2)CCCN3C(C)=O)cc(OC)c1OC | inconclusive: 7.31 µM [falling, partial curve, poor fit] | – |
| Cc1cc(C)cc(-n2nnc(-c3nc(-c4ccccc4F)no3)c2C)c1 | inconclusive: 29.1 µM [falling, single point] | – |
| CC(C)(C)c1ccc(S(=O)(=O)NNC(=O)C2CCN(Cc3cccc(F)c3)CC2)cc1 | inconclusive: 0.0065 µM [falling, full curve, poor fit] | – |
| CCCOc1ccc(CNC(=O)Cc2cccs2)cc1 | inconclusive: 2.06 µM [activator, full curve] | – |
| Cc1ccc(S(=O)(=O)c2cc3c(=O)n4ccccc4nc3n(C3CCCC3)c2=N)cc1 | inconclusive: 16.4 µM [falling, single point] | – |
| Cc1ccc(NC(=O)c2ccc(CN3CC(=O)N4CCCCC4C3=O)cc2)cc1 (stereo unspecified) | inconclusive: 20.6 µM [activator, partial curve] | – |
| Cc1ccc(Cl)cc1N1CCN(C(=O)C2CCCN(S(=O)(=O)c3cnc[nH]3)C2)CC1 (stereo unspecified) | inconclusive: 25.9 µM [falling, single point] | – |
| Cc1ccc(-c2nnc(N3CCN(C(=O)Cn4c(=O)n(C)c5ccccc54)CC3)c3ccccc23)cc1 | inconclusive: 2.06 µM [falling, partial curve, poor fit] | – |
| COc1ccc(-c2nnc(NC(=O)c3ccc([N+](=O)[O-])o3)o2)c(OC)c1 | inconclusive: 20.6 µM [activator, single point] | – |
| CCc1cccc(NC(=O)Cn2c(=O)n(-c3cccc(Cl)c3)c(=O)c3c2c2cc(C)ccc2n3C)c1 | – | inactive: 9.5% [at 9.27 µM] |
| O=C(NC1CC2CCCC(C1)N2C(=O)Nc1ccc(F)cc1)c1ccccc1 (stereo unspecified) | inactive | – |
| COc1ccc(Cn2c(=O)[nH]c3cc(C(=O)N4CCN(c5ccccc5F)CC4)ccc3c2=O)cc1 | inactive | – |
| Fc1ccc(-n2nnc(-c3cccnc3Cl)n2)cc1 | inconclusive: 6.51 µM [activator, partial curve] | – |
| CCCn1c2c(c(O)c(C(=O)NC)c1=O)CCCC2 | inactive | – |
| CCOC(=O)C1CCN(S(=O)(=O)Cc2ccccc2)C1=O (stereo unspecified) | inconclusive: 8.2 µM [falling, partial curve, poor fit] | – |
| COc1ccc(Cl)cc1CSc1ncn[nH]1 | inconclusive: 9.2 µM [falling, partial curve] | – |
| O=C(Nc1nc2cc3c(cc2s1)OCO3)C1CC1 | inconclusive: 29.1 µM [falling, single point] | – |
| O=C(NNC(=O)c1ccco1)c1csc(N2CCOCC2)n1 | inconclusive: 5.8 µM [activator, partial curve, poor fit] | – |
| COc1ccccc1OC(C)C(=O)N1CC(=O)Nc2ccccc21 (stereo unspecified) | inconclusive: 8.2 µM [activator, partial curve, poor fit] | – |
| CC(=O)c1ccc(Nc2ccc([N+](=O)[O-])c3nonc23)cc1 | inactive | – |

Shown as tab-separated lines: three of the compounds above.
Structure (SMILES)	Potency	activity change, negative = inhibition
O=C1CCC(C(=O)Nc2cccc(S(=O)(=O)Nc3ccccc3F)c2)=NN1	active: 25.9 µM	–
COc1ccc(Cn2c(=O)[nH]c3cc(C(=O)N4CCN(c5ccccc5F)CC4)ccc3c2=O)cc1	inactive	–
Fc1ccc(-n2nnc(-c3cccnc3Cl)n2)cc1	inconclusive: 6.51 µM [activator, partial curve]	–

Further results follow:

| Structure (SMILES) | Potency | activity change, negative = inhibition |
| --- | --- | --- |
| COC(=O)c1ccccc1-c1ccc(/C=N/Nc2nc(N3CCCC3)nc(N3CCCC3)n2)o1 | inconclusive: 29.1 µM [falling, single point] | – |
| NS(=O)(=O)c1ccc(N2N=C(c3ccccc3)CC2c2ccccc2Br)cc1 (stereo unspecified) | inconclusive: 20.6 µM [falling, partial curve] | – |
| COC(=O)c1cccc(C23CC4(C2)[C@H](CN(C)[C@@H]4c2ccccc2)C3c2ccccc2)c1 (stereo partly specified) | inconclusive: 32.6 µM [activator, single point] | – |
| CN(C)CCNc1oc(COc2ccc(Cl)cc2)nc1C#N | inconclusive: 2.31 µM [falling, partial curve, poor fit] | – |
| c1ccc(CCCNCCCn2cnc3c(OCc4ccccc4)ncnc32)cc1 | inactive | – |
| CC(=O)Nc1ccc(NC(=O)c2ccc(OCc3c(C)noc3C)cc2)cc1 | inactive | – |
| Cc1ccc2c(c1)c1c(c(=O)n(-c3ccccc3)c(=O)n1CC(=O)c1ccc(F)cc1)n2C | inactive | – |
| CN(C)S(=O)(=O)N1CCC(Oc2cccc(C(=O)N3CCCCCCC3)c2)CC1 | inconclusive: 16.4 µM [falling, partial curve, poor fit] | – |
| Cn1cccc1/C=N/N1CCN(c2ccccc2)CC1 | inconclusive: 29.1 µM [activator, partial curve, poor fit] | – |
| O=C(NNC(=S)NC1CCCCC1)c1cccs1 | inactive | – |
| CCN(CC)c1ccc(C(=O)OCC(=O)Nc2sccc2C#N)cc1 | inconclusive: 20.6 µM [activator, partial curve] | – |
| COc1cc(/C=N/Nc2ccccn2)cc(OC)c1O | inconclusive: 29.1 µM [falling, single point] | – |
| CNC(=S)Nc1cccc(C(=O)OC)c1 | inconclusive: 3.66 µM [activator, partial curve] | – |
| CSCC[C@H](Nc1ncnc2sc(C)c(C)c12)C(=O)O | inconclusive: 2.59 µM [activator, partial curve, poor fit] | – |
| O=C(NCc1ccccn1)C1Nc2ccc(OC(F)(F)F)cc2C2C=CCC12 (stereo unspecified) | inconclusive: 13 µM [falling, partial curve, poor fit] | – |
| CCOC(=O)c1c(NC(=O)CSc2nnc(N)s2)sc(C)c1-c1ccc(C)cc1 | inconclusive: 16.4 µM [falling, single point] | – |
| CC[C@]1(O)C[C@@H]2CN(CCc3c([nH]c4ccccc34)[C@@](C(=O)OC)(c3cc4c(cc3OC)N(C)[C@H]3[C@@](O)(C(=O)OC)[C@H](OC(C)=O)[C@]5(CC)C=CCN6CC[C@]43[C@@H]65)C2)C1 | inconclusive: 0.231 µM [activator, full curve, poor fit] | – |
| CSc1ccc(Cn2nnc(C(=O)Nc3ccc(C)cc3Cl)c2N)cc1 | inconclusive: 5.17 µM [activator, single point] | – |
| CC(=O)Nc1ccc(S(=O)(=O)NCCC(=O)Nc2ccc(C)c(F)c2)cc1 | inactive | – |
| Cc1ccccc1OCC(O)Cn1nnc2ccccc21 (stereo unspecified) | inconclusive: 5.8 µM [activator, full curve] | – |

From PubChem BioAssay AID504444 (National Center for Advancing Translational Sciences (NCATS), 2011)
